The results in this text go back to publication PMC10127613 (mBio, 2023).

No signal at the amounts used counts as a negative. Where a protein sequence is shown, tags need not be part of it. Weaker means in comparison with the reference protein, sequence or condition of that experiment.

The data set deals with T1, Clr (Sinorhizobium meliloti) (UniProt Q92SD2).
T1 sequence (looked up): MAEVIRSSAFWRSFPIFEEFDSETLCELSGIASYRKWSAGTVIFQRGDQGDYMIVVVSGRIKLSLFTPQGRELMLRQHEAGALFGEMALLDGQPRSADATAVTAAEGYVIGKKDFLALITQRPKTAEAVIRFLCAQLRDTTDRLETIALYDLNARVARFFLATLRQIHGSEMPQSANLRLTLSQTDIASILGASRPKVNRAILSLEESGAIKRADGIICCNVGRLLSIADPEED
Nature of the data set: EMSA. The following applies: 1 mM cAMP, EMSA: 2 mM HEPES pH 7.0, 30 mM NaCl, 50 mM KCl, 850 ng salmon sperm DNA, 1 ug BSA, 20 ng Cy3-DNA, 3 ug Clr in 10 uL, room temperature, recombinant protein, residues 1-234, protein details: C-terminal His6 (pET36b, NdeI/XhoI), label: 5'-Cy3 on reverse strand. For orientation: A gel shift assay detects complexes by their altered migration in electrophoresis.

For the sequence “AGCGGATAACAATTTCACACAGGAAACAGCATATGACCATGATTACGCCAAGCTCGAAATTAACCCTCACTAAAGGGAACAAAAGCTGGAGCTCGTGGACTGAAGTGGCGGACAGAGAGGGATTCGAACCCTCGATACGCTTTCACGTATACACGCGTTCCAGGCGTGCGCCTTCAACCACTCGGCCACCTGTCCATCCTTCTGCAGCCGGCGGTCGATCCGGCTGGATGGGGAAAAGCGAAGCTTCTCCGCGTCACCGGTGAAACCGGGAGACGGGCGCGATATATACCGATGATGCGCGCGGGATCAACTGGTTTCTGACATATTATTGACATGCCTTGAAAGGTGCTGCGGATGACCGGCCATTGCGCTTGCCCGCCCTTGCGCCTATCTCTTGCGCAGGACGAGCCGAAAGGGGGAGCGGATGCGGTTGCTGCTGCGGTTTTCTAGACTGCAGATGGTGAGCAAGGGCGAGGAGCTGTTCA (double strand) [SMc02886]”, the binding result was “binds more weakly”.
“AGCGGATAACAATTTCACACAGGAAACAGCATATGACCATGATTACGCCAAGCTCGAAATTAACCCTCACTAAAGGGAACAAAAGCTGGAGCTCTTAAGCTTAAGGCACTGACGGTTCTCCTGCTGCTGGCCATGTGCGTCCAGCTCATCAAGCCGCTCGGCTTTCCGGGCCTCAGGCAGCGCCGCGATTTCTGGAAGATTGCCGTCTTCGCCATCGTCGTGATGATGGTCACGGTGCTCGTGCGTCCTTGAACTACTGCCGTGCCGCGCGGGATCTCGATTCTCCGGCGGCTCGGCGTTCCCCGAGAAACAGCAGCTTGGGCTAGGGCCGCGCTATTGTCGTCACCAAGTCGCTCTATCTCCGCACGACATGACGACAGGAAAAGGTTAAATTACCGTGCTCGGCCACAAGATGAAGATCGAGGCTCTGTTGGAACGTCGTCTCACCTCTAGACTGCAGATGGTGAGCAAGGGCGAGGAGCTGTTCA (double strand) [cyaF2]”: the binding result is “binds”.
The same measure for “AGCGGATAACAATTTCACACAGGAAACAGCATATGACCATGATTACGCCAAGCTCGAAATTAACCCTCACTAAAGGGAACAAAAGCTGGAGCTCTTAAGCTTCGCGCGTTTGTCATCTTGGATTTATGGAGACGAAAACGGCCAGGCCAGCGGATCGCTAGCGAATAATGTTCCGGCAAATAATGCAGATAACCGTTTTCATGGCGACCCTTATCGCGCGTCGCCCGGCGCCGGTCAAGAGGCGAGCCACGTGCAAGCGAAAGTCGTCAATCTGCAACCATGACGGCCATGGATTTGTCACGATTTGGCTTATCTGGAAATCATCGGAGGGGAAGGAGATTCGCGAATGCAGCCGGATACTGCATCAGGTCCTGTTTCCCGAGGAACAACAGGGACATGGTTTTCGTTGAAAATTCACGAGGGCTAATGTTCCCAATAGGGAAAACACCAAGGAAGACATGCAATGAAGGCCGCCAAAATTGCCTCTAGACTGCAGATGGTGAGCAAGGGCGAGGAGCTGTTCA (double strand) [cysS / SMc02552]”: “binds”; for “AGCGGATAACAATTTCACACAGGAAACAGCATATGACCATGATTACGCCAAGCTCGAAATTAACCCTCACTAAAGGGAACAAAAGCTGGAGCTCTTAAGCTTCTTCTGGGACGGCTTTTCGTAGAAGTCACGCATCTTCATTTCGCGGAAAATGCCTTCGCGCTGCATCTTTTTCTTAAGAGCGCGGAGCGCCTGATCGACATTGTTATCGCGGACAAGTACCTGCACGTGAATCCCGTTCCTTTGCTTCGAGTTGGTAAGCCTCACCATCAGGTTTGGAGAGGCAATAAATTTGCGTTCGCTGGGCGAGAACCCTACGATTAGAAGAGCGGATAACAGATCGCGTGCCGAAAGTCCAGCGGCGAGAGAGCGCGCGTGGGGAAAAAGCGCCGATGGCTCTGCGGCGGCGGCCGTCGATGTCGCAAGACCGCGCAAGTCCGCCGGATCGCGTCGCAAAAGAAACGTTGCGTGGTCCTCGGATTTGCGATTTCTAACGCCAACGAACGTTACCGGGTTCATGGAGTAGCAGGCGGATGCGCAAATATTCTGTTTTTGCCGTGGCGCGCTCTAGACTGCAGATGGTGAGCAAGGGCGAGGAGCTGTTCA (double strand) [rpsU2 / soxB2]”: “no binding”; for “AGCGGATAACAATTTCACACAGGAAACAGCATATGACCATGATTACGCCAAGCTCGAAATTAACCCTCACTAAAGGGAACAAAAGCTGGAGCTCTTAAGCTTGACGAGGGTGTGATGGCATGTCGTTCATGGCTCCGCTGTAGCAGTGTGCTGTAGCAAACGGAACTGTAAGTCGTTGATTTTGTGCTAAGTCCTTGCGATTAAACAAGGAAAAATGGTGCTGCTAGAGAGATTTGAACTCTCGGCCTCTCCCTTACCAAGGGAGTGCTCTACCCCTGAGCTATAGCAGCATCCGGCGGCACTTCGTGGCAAGCCGCATCAGGCGAGGGGCCTATTGCCATAGCTTGAGGGAGAGCGCAAGCCGCATTTCGAAGTTTTTGGGCGGGCCGCGCCGGGAAGATGGCGGGCTCACACGGTCCAGGGCGCTCAAGCTCTTCCATTGCAGCCTTTTGCGGCACGGACCGGCCCGGAAGCCGCTTCGCGGTTTTCCCCGATTTCGCTCTCACCTGGCCGGCTTGCCGCTTCCGAAGGCCCTGGTTTTGCGGTAATGGATGGCCATGCAGAGCGACGACTCTAGACTGCAGATGGTGAGCAAGGGCGAGGAGCTGTTCA (double strand) [SMc02304]”: “binds”.
Consider “AGCGGATAACAATTTCACACAGGAAACAGCATATGACCATGATTACGCCAAGCTCGAAATTAACCCTCACTAAAGGGAACAAAAGCTGGAGCTCTTAAGCTTGATCGCGGACGCGGTGAACCCAGCCGGAAAGGCGAACGGTGGAGCCGACATCCGACTTGCGGAGGGCGGCACAGGTGTGGCTGCGGTAACGGTGCATCGTATAGTCCCGGAATTGCTTAAAGGCCGCGCAGCTCGCAGAACGGCGCAGGGCGGCATGGTCAAAGTCGGGCGGAAAAGCGCATGATGCGCCGGTTTTGTCAAGGCCGCGGCGGCGCCGGCGGCAAGAGCGCTGCCCCGGTCGCACAAGTTGCCCGCTTCGACCACAGCCGCAAGCGGTACGGCGCAAATTTGGACACGAGTGGTCACAAATTGCTACTGTTCCCGCGCGTCAGCCACGGTTAAACAGGGGCAAGGGTCGCGTATCGCGCGAGTCGCGGCCGCAATCGGATGCCTTCTGTTCCATGTCCCAGATTCGCCCGCTCTCTAGACTGCAGATGGTGAGCAAGGGCGAGGAGCTGTTCA (double strand) [aspS / SMc01755]”, for which the binding result is reported as “binds more weakly”.
For “AGCGGATAACAATTTCACACAGGAAACAGCATATGACCATGATTACGCCAAGCTCGAAATTAACCCTCACTAAAGGGAACAAAAGCTGGAGCTCTTAAGCTTGATGCAAAGAATCCGGCGATGGCGGCGGCCTTCGTAAACTACATTCTCAGTTCGGAGGTCCAGGTTGCTTTCGCGACACGGAATCTCTACGCGCCGACGGTAAAGAATGCCGAAATACCCGATGATTTTGAGTTCCGGGATCTGCTTGTGCTGAACGATGCATTCGGCCGTCTCTACCTGCCGGATCAGGAGAAGATCACTGCCAACAAAGCGGGTTGGCAGCAGCAGCTGAACCAGAAGGCTATGCGCTAAGCAAGCGGCCGTGGTGCACGCACGATCGAGCGCCACGGCTAACCTTGTGAGCCGGGCCTTTCGGCAAGGCGCGTTCCCGGCGGAACTGCCAGAACAGGAACAATGCAACCATGTCCAATGATTCAATTCAGGTCGAGGGAATCACAAAGCGCTATGGCGCGATGACGGCCGTCGACAATGTATCCTTCGATGTTGGCCAGGGGGAGTTCGTGTCGCTGCTCGGCCCGAGCGGTTGTGGAAAGACCACGTCTAGACTGCAGATGGTGAGCAAGGGCGAGGAGCTGTTCA (double strand) [SMa2207]” the value was “binds”; for “AGCGGATAACAATTTCACACAGGAAACAGCATATGACCATGATTACGCCAAGCTCGAAATTAACCCTCACTAAAGGGAACAAAAGCTGGAGCTCTTAAGCTTGCCGGCTGTTCTAACAATAGGGCCGACTTCCTGTCACGCAATGGGCGGATACGATTCGCCGTGTTTGGCCGGTGAAATATGGGGTTCTTCAGTGTTCTCCCGTTGGCCCCTTGAAGCACGGCCGACGGCTTGCTAACCGAATCGGTCGCCGAAGGCACATGGCGATCATGGTTCTCTCTAAGATCCAGGCAAACCATAGCCACTGCGGCTGGCCGAAAGCCGTGATTTACGAACTTAACAAACTTGACGAACTGTCCCATCCTGCCTAAGTTATAGCGCAGGAGGCCGAAGACCATGCCCGCGACGAAGACTCTATCTAGACTGCAGATGGTGAGCAAGGGCGAGGAGCTGTTCA (double strand) [SMa1924]”, “no binding”.
On to “AGCGGATAACAATTTCACACAGGAAACAGCATATGACCATGATTACGCCAAGCTCGAAATTAACCCTCACTAAAGGGAACAAAAGCTGGAGCTCTTAAGCTTTCTACGCCGGCAACTGAGCATCTGCTTTTTTCTGGTTCGCCTGGTTGATATATTCATCTTTTGGCAACCAAACGGGCATCTAATCATTAATCTTGTAAGTGGTTCCCGCGGTAACGGCGGAGCACCAAAATGTGTTGTAGGCTGTATCCAATGTTTATCGGGCGGGCCGCATTTGTAGCCGGTTCAGTGCTATATCTCGATCATGGTGTCAGTCTTTCAGCGACCAGATGTGAGGCCGGCACCGGCATGTTTCGATGGCCGAATCGCTTCGGTTCAAGGAATATTCGGTAGTAGGGCTCGGCAGGGCTTTCTGCAGGGCCGTGTGCTAGAAGCTAATCTATTCGGCGGTGTCGGAGGTGCCGGATGCTGAACTGGACATTCACGTCTAGACTGCAGATGGTGAGCAAGGGCGAGGAGCTGTTCA (double strand) [SMc01003]”, for which the binding result is recorded as “binds”.
